Experimental data as given in patent publication US4199579A, “Carbamates of 2-haloergolines and 2-haloergolenes and process for the preparation thereof” (priority 1975, dated 1980).
For at least one compound, name, drawing or mass did not settle the structure.

Experiments:
[1] = system: ptosis from reserpine, anorexia, Parkinson; experiment: Comparative examination of compound (3) with known comparison substances; assay type: in vivo; settings: for example in the form of its maleate
[2] = system: isolated ileum of guinea pig; experiment: AntiBaCl2 activity in vitro (c): antagonism of the spasmogenic action of barium chloride on the isolated ileum; assay type: cell-based
Experimental: (c) Magnus, Pflugers Arch.Ges.Physiol. 102, 123 (1904)
The substance antagonizes the spasmogenic action of the barium chloride on the isolated ileum of guinea pig at dosages of between 1 and 5 μg/ml. […] On the isolated caudal arteria of rat, the compound II inhibits the vaso-constricting effect as caused by the perfusion with hyperpotassium Ringer's solution.

[3] = system: isolated caudal arteria of rat; experiment: Inhibition of vasoconstriction caused by perfusion with hyperpotassium Ringer's solution on isolated caudal arteria; assay type: cell-based; settings: compared with nicergoline and papaverine
[4] = system: anaesthetized dog; experiment: Haemodynamics in the anaesthetized dog; assay type: in vivo; settings: 10-50 μg/kg intravenously
[5] = system: beta-adrenergic receptors; experiment: Antagonism of beta-adrenergic receptors in isolated atrium; assay type: cell-based; settings: isolated atrium of guinea pig
[6] = system: beta-adrenergic receptors; experiment: Antagonism of beta-adrenergic receptors in isolated trachea; assay type: cell-based; settings: isolated trachea of guinea pig

Row | SMILES | power of actions compared with comparison substances [1] | anti-barium chloride activity compared with nicergoline ([2]; versus nicergoline) | anti-barium chloride activity compared with papaverine ([2]; versus papaverine) | duration of inhibition of hyperpotassium vasoconstriction [3] | arterial pressure [4] | femoral arterial resistance [4] | heart rate [4] | myocardial contractility [4] | antagonism of beta-adrenergic receptors [5] | antagonism of beta-adrenergic receptors [6]
1 | CN1C[C@H](COC(=O)N2CCCCCC2)C[C@@H]2c3cccc4c3c(c(Br)n4C)C[C@H]21 [Example 14, D-2-bromo-1,6-dimethyl-8beta-(perhydroazepinylcarbonyloxymethyl) ergoline] | significantly more powerful actions | – | – | – | – | – | – | – | – | –
2 | CN1C[C@H](COC(=O)N2CCCCCC2)C[C@@H]2c3cccc4[nH]c(Br)c(c34)C[C@H]21 [Example 2, D-2-bromo-6-methyl-8beta-(perhydroazepinylcarbonyloxymethyl)-ergoline] | – | of the same order as that of nicergoline | higher than that of the papaverine | longer lasting | reduced | reduced | does not vary | does not vary | does not antagonize | does not antagonize
